For the experiment, the system named is B6C3F1 mice, B16 melanoma ip, median survival T/C. The experiment can be described thus: NCI In Vivo Anticancer Drug Screen. Data for tumor model B16 Melanoma (intraperitoneal) in B6C3F1 mice. Particulars: T/C endpoint: median survival time, schedule: Q01DX009 (ip), higher T/C = longer survival. Put shortly:
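Tumor-bearing mice received test compound; a separate group got vehicle only. Survival was then compared, with results reported as treated over control.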

The mark [1] stands for this setting: dose: 25.0 mg/kg/injection, vehicle: Klucel (hydroxypropylcellulose) (HPC).
The mark [2] stands for this setting: dose: 50.0 mg/kg/injection, vehicle: Klucel (hydroxypropylcellulose) (HPC).
[3] abbreviates: dose: 1.0 mg/kg/injection, vehicle: Klucel (hydroxypropylcellulose) (HPC).
The mark [4] stands for this setting: dose: 200.0 mg/kg/injection, vehicle: saline with Tween-80.
The mark [5] stands for this setting: dose: 100.0 mg/kg/injection, vehicle: saline.
Where [6] appears, read: dose: 200.0 mg/kg/injection, vehicle: saline.
Setting [7] is: dose: 400.0 mg/kg/injection, vehicle: saline with Tween-80.
Setting [8] is: dose: 200.0 mg/kg/injection, vehicle: Klucel (hydroxypropylcellulose) (HPC).
The mark [9] stands for this setting: dose: 25.0 mg/kg/injection, vehicle: saline.
Setting [10] is: dose: 400.0 mg/kg/injection, vehicle: Klucel (hydroxypropylcellulose) (HPC).
Setting [11] is: dose: 50.0 mg/kg/injection, vehicle: saline with Tween-80.
The mark [12] stands for this setting: dose: 12.0 mg/kg/injection, vehicle: distilled water + Tween-80.
Setting [13] is: dose: 100.0 mg/kg/injection, vehicle: saline with Tween-80.

The list does not hold the whole screen: it gathers tests that were run many times, whatever their T/C, doses with no T/C, and many T/C values between a quarter and a half above the control. Other doses and runs of a compound stand elsewhere. T/C: endpoint of the treated group in % of that of the vehicle group. Some doses have a count of surviving animals in place of a T/C: the source holds a T/C of zero for them, seemingly a mark for toxic or unscored doses. Some survivor counts are full or nearly so, which does not show that the dose was tolerated: the source hardly ever lists a survival T/C far under the control, and the zero likely stands for such cases as well. Counts of survivors are from the toxicity check (mostly the fifth day) where no day follows; animals may have died later. Schedules are NCI's codes, taken here to give the interval after Q, in days (D) or hours (H), and the number of doses after X. Some entries hold several experiments; their values stand side by side, smallest first. Where survival is the endpoint, the PubChem record calls one and a half times the control and up active, and a quarter to a half above the control has no call in these data; cut-offs in other NCI protocols can differ. Some T/C values carry the count of animals alive at the toxicity check (mostly the fifth day); where none is given, no animal had died by that day. *1 amine or outer side, *2 acyl side, *3 side chain or, on linkers, in order; H or OH if unused. Where a SMILES comes first, the peptide text is derived from it. Bridges are numbered along the chain shown (N, C = ends). Roman numbers before positions name the chains, in order. [ ]: non-standard residue; d: D form. The star is where a group is joined. ξ: configuration not given here. Quinaldoyl(3-OH,6-OMe) = COc1ccc2nc(C(=O)*)c(O)cc2c1; X6 = CCC(=O)OC1CC=NN([*:1])C1C(=O)[*:2]; X7 = CC(=O)OC1CC=NN([*:1])C1C(=O)[*:2]; ξNMeVal(3-OH) = CNC(C(=O)O)C(C)(C)O; Sar = CNCC(=O)O

As for `N#C[Se-].c1ccc([Te+](c2ccccc2)c2ccccc2)cc1`, the survivor count under setting [1] is recorded as 0 of 10 and the survivor count under setting [2] was 0 of 10.

In the case of `COc1ccc([C@@]23Oc4cc(OC)cc(OC)c4[C@]2(O)[C@H](O)[C@H](C(=O)N(C)C)[C@H]3c2ccccc2)cc1`, under setting [3], the T/C was 129 % of control. Moreover, for the setting “dose: 4.0 mg/kg/injection, vehicle: Klucel (hydroxypropylcellulose) (HPC)”, the survivor count is 0 of 10, 6 of 10, 8 of 10.

For `Cc1cccc2c1CC(C(C)C)C2` (configuration not stated), under setting [4], the survivor count was 9 of 10.

For `COCCOC(=O)Cc1ccc(OC)c(OC)c1`, the survivor count was 9 of 10 under setting [5] and 8 of 10 under setting [6].

Take `CC1(C)CC2(C)OC2C2(C1)N=NC(=Nc1ccccc1)O2` (configuration not stated): the survivor count was 3 of 10 under setting [4] and 0 of 10 under setting [7].

As for `Nc1nc(N)c2cc(CNc3ccc(C(=O)NC(CC(=O)O)CC(=O)O)cc3)ccc2n1`, the survivor count is, setting by setting: (dose: 0.19 mg/kg/injection, vehicle: Klucel (hydroxypropylcellulose) (HPC)) 10 of 10; (dose: 0.78 mg/kg/injection, vehicle: Klucel (hydroxypropylcellulose) (HPC)) 10 of 10; (dose: 1.56 mg/kg/injection, vehicle: Klucel (hydroxypropylcellulose) (HPC)) 10 of 10.

As to `COC(=O)[C@@]12OC[C@]34[C@H]([C@@H](O)[C@@H]1O)[C@@]1(C)CC(=O)C(O)=C(C)[C@@H]1C[C@H]3OC(=O)[C@H](OC(=O)/C=C(\C)C(C)CO)[C@@H]24` (some centres not stated), the T/C was 109, 115, 125, 168 % of control (dose: 1.0 mg/kg/injection, vehicle: saline + alcohol); 121, 141, 157, 200 % of control (dose: 2.0 mg/kg/injection, vehicle: saline + alcohol); 142, 162, 184 [9 of 10 alive], 185 % of control (dose: 4.0 mg/kg/injection, vehicle: saline + alcohol).

For `C=C(OP(=O)(OC)OC)Sc1ccccc1C`, the survivor count is given as 9 of 10 under setting [3]; 8 of 10 (dose: 1.5 mg/kg/injection, vehicle: Klucel (hydroxypropylcellulose) (HPC)); 0 of 10 (dose: 3.0 mg/kg/injection, vehicle: Klucel (hydroxypropylcellulose) (HPC)); 0 of 10 (dose: 6.0 mg/kg/injection, vehicle: Klucel (hydroxypropylcellulose) (HPC)); 0 of 10 (dose: 12.5 mg/kg/injection, vehicle: Klucel (hydroxypropylcellulose) (HPC)); 0 of 10 under setting [1]. Further, the survivor count under setting [2] is 0 of 10; the survivor count (dose: 100.0 mg/kg/injection, vehicle: Klucel (hydroxypropylcellulose) (HPC)) is 0 of 10; the survivor count under setting [8] is recorded as 0 of 10.

For the compound `C=C(C)C(=O)N(C)C(C)C(=O)OC1CC(=O)N(C)c2cc(cc(OC)c2Cl)C(OC)C(C)=C/C=C/C(OC)C2(O)CC(OC(=O)N2)C(C)C2OC12C` (configuration not stated), the T/C (dose: 4.0 micrograms/kg/injection, vehicle: saline) was 145 % of control.

As for `O=[N+]([O-])c1c(O)c(CNCCCO)cc(CNCCCO)c1O`, the survivor count under setting [9] was 9 of 10; the survivor count (dose: 50.0 mg/kg/injection, vehicle: saline) is recorded as 10 of 10; the survivor count under setting [5] is listed as 5 of 10; the survivor count under setting [6] is 0 of 10.

`CN(CCN(C)C(=O)CCOS(C)(=O)=O)C(=O)CCOS(C)(=O)=O`: under setting [9], the T/C was 132 % of control. For the same compound, the survivor count runs as follows: under setting [6], 10 of 10; (dose: 400.0 mg/kg/injection, vehicle: saline) 10 of 10.

Regarding `COc1cc(OC)c(OC)cc1/C=C\c1ccnc2ccccc12`, the T/C under setting [8] was 137 % of control. Also, under setting [10], the survivor count is on record as 0 of 8.

In the case of `CC1(C)N=C(N)N=C(N)N1c1ccc(CCCCc2ccc(S(=O)(=O)F)cc2Cl)c(Cl)c1`, the T/C by setting is: (dose: 3.12 mg/kg/injection, vehicle: saline with Tween-80) 126 % of control; (dose: 6.25 mg/kg/injection, vehicle: saline with Tween-80) 133 % of control; (dose: 12.5 mg/kg/injection, vehicle: saline with Tween-80) 142 % of control; under setting [11], 131 % of control. Further, the survivor count reads like this: (dose: 25.0 mg/kg/injection, vehicle: other) 9 of 10; (dose: 50.0 mg/kg/injection, vehicle: other) 2 of 10.

In the case of `COC(=O)C(Cc1ccc(O)cc1)NC(=O)C(Cc1ccccc1)NC(C)=O` (stereo not drawn) (Ac-Phe-Tyr-OMe; configuration not given here), under setting [10], the survivor count is recorded as 8 of 8.

As to `CCC(C)c1cnc(CC(C)C)c(=O)n1O` (configuration not stated), the survivor count runs as follows: under setting [4], 0 of 10; under setting [7], 0 of 10.

Consider `O=C1C=C[C@H](O)[C@@]2(CO)O[C@@H]12`, for which the survivor count (dose: 10.0 mg/kg/injection, vehicle: saline with Tween-80) is 10 of 10; the survivor count (dose: 20.0 mg/kg/injection, vehicle: saline with Tween-80) is listed as 6 of 10; the survivor count (dose: 40.0 mg/kg/injection, vehicle: saline with Tween-80) was 1 of 9.

Turning to `C#CCNC1=C(C)C(=O)C2=C(C1=O)[C@H](COC(N)=O)[C@]1(OC)[C@@H]3N[C@@H]3CN21`, the T/C (dose: 0.75 mg/kg/injection, vehicle: distilled water + Tween-80) is 145 % of control; the T/C (dose: 1.5 mg/kg/injection, vehicle: distilled water + Tween-80) was 131 and 143 % of control; the T/C under setting [12] is 134 % of control. Moreover, the survivor count is on record as 10 of 10 under setting [12]; 10 of 10 (dose: 12.5 mg/kg/injection, vehicle: distilled water + Tween-80); 10 of 10 (dose: 25.0 mg/kg/injection, vehicle: distilled water + Tween-80); 6 of 10 (dose: 50.0 mg/kg/injection, vehicle: distilled water + Tween-80); 0 of 10 (dose: 100.0 mg/kg/injection, vehicle: distilled water + Tween-80).

In the case of `COc1cc(C(=O)N/N=C/c2cccc([N+](=O)[O-])c2)cc(OC)c1OC`, the survivor count by setting is: under setting [11], 10 of 10; under setting [13], 10 of 10; under setting [4], 10 of 10; under setting [7], 10 of 10.

For the compound `CCC(=O)OC1CC=NN2C(=O)C(NC(=O)c3nc4ccc(OC)cc4cc3O)COC(=O)C(C(C)(C)O)N(C)C(=O)CN(C)C(=O)CNC(=O)C3C(OC(C)=O)CC=NN3C(=O)C(NC(=O)c3nc4ccc(OC)cc4cc3O)COC(=O)C(C(C)(C)O)N(C)C(=O)CN(C)C(=O)CNC(=O)C12` (configuration not stated) (I: {Quinaldoyl(3-OH,6-OMe)}-S[X6]G[Sar][ξNMeVal(3-OH)] / II: {Quinaldoyl(3-OH,6-OMe)}-S[X7]G[Sar][ξNMeVal(3-OH)]; ester I:1-II:C, I:C-II:1; configuration not given here), the T/C by setting is: (dose: 32.0 micrograms/kg/injection, vehicle: saline) 134 % of control; (dose: 64.0 micrograms/kg/injection, vehicle: saline) 147 % of control.

Take `O=[N+]([O-])c1ccc(N(CCO)CCO)c2c1no[n+]2[O-]`: the survivor count by setting is: under setting [11], 10 of 10; under setting [13], 5 of 10.

These data come from PubChem BioAssay AID200 (DTP/NCI, 2004).
